For this series, the system named is TBX5 + MEF2C. Briefly: EMSA. As to conditions: EMSA in 15-20 ul, 0.5 h at room temperature, salt and pH not given (as described previously, ref 28), label: end-labelled. On the technique in general: In EMSA bound probe runs differently from free probe, usually more slowly.

The exact form of at least one protein or probe is not confirmed. Weaker means in comparison with the reference protein, sequence or condition of that experiment.

In the case of “CACCTCCACACCCTGGAGCTATATTGAGAGGTGACAGTAAAC (double strand) [MYH6 promoter T-M-T probe]”, the binding result (increasing HDAC4) is recorded as “binds more weakly” and the binding result (no HDAC4) is given as “binds”.
